Where a name gives a salt, the structure may show the parent alone. ± gives the standard deviation of the averaged measurements. Some of the results follow. Plates or batches differ in their baseline, so values are only roughly comparable.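 The cells are a mouse kidney inner medullary collecting duct line, silenced either for the ciliary gene Rpgrip1l or with a non-targeting control siRNA.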
Key:
mIMCD3 [1] = test: robust z score of cell number vs plate controls; higher = more cells (less cytotoxic); settings: 10 µM, 48 h
mIMCD3 [2] = test: robust z score of cilia incidence (% cells with single cilium) vs plate controls; higher = more ciliated cells; settings: 10 µM; 48 h; siRNA: siScr
mIMCD3 [3] = test: robust z score of cilia incidence (% cells with single cilium) vs plate controls; higher = more ciliated cells (rescue of cilia loss); settings: 10 µM; 48 h; siRNA: siRpgrip1l

Compound | robust z score of cell number (mIMCD3 [1]; siRNA: siRpgrip1l) | robust z score of cell number (mIMCD3 [1]; siRNA: siScr) | robust z score of cilia incidence (mIMCD3 [2]) | robust z score of cilia incidence (mIMCD3 [3])
C[C@@]12C(=O)OC(=O)[C@]1(C)[C@H]1CC[C@@H]2O1 [Cantharidin] | -192 ± 220 | -45 ± 11 | -44.6 ± 17 | -545 ± 310
O=C1C2CCN(CC2)C1(CO)CO | -11.2 ± 9.1 | -13 ± 5.3 | -9.99 ± 8 | -31.7 ± 18
c1ccc(C2CNCc3ccccc32)cc1 (stereo unspecified) [4-Phenyl-1,2,3,4-tetrahydroisoquinoline hydrochloride] | -2.52 ± 3 | -2.58 ± 0.36 | -4.15 ± 1.8 | -9.39 ± 1.6
O=c1[nH]c2ccccc2n1CCCN1CCC(n2c(=O)[nH]c3cc(Cl)ccc32)CC1 [Domperidone] | -11.1 ± 3 | -59.1 ± 52 | -18.7 ± 6.4 | -30 ± 0.81
C[N+]1(C)CCc2cc3c(cc2C1C1OC(=O)c2c1ccc1c2OCO1)OCO3 (single isomer, unassigned; (-)) [(-)-Bicuculline methobromide] | -1.42 ± 4.7 | -4.25 ± 0.11 | -1.77 ± 2.9 | -10.9 ± 3.6
CCCCCCC[n+]1ccc(-c2cc[n+](CCCCCCC)cc2)cc1 [DHBP dibromide] | -47.7 ± 15 | -36.5 ± 5.7 | -25.6 ± 1.6 | -23.9 ± 3.2
COc1cc2c(c(OC)c1OC)-c1ccc(OC)c(=O)cc1[C@@H](NC(C)=O)CC2 [Colchicine] | -54.3 ± 46 | -47.7 ± 2.2 | -78.3 ± 16 | -43.2 ± 1.9
COC1(C[S@+]([O-])c2ccccc2)CCN(CCc2c[nH]c3ccc(F)cc23)CC1 | -98.9 ± 95 | -2.86 ± 1.7 | -4.31 ± 3.1 | -17.3 ± 4.5
O=C(Cc1ccc(Cl)c(Cl)c1)N1CCCCC1CN1CCCC1 (stereo unspecified) | -1.33 ± 1.6 | -2.32 ± 1.8 | -2.99 ± 0.78 | -7.61 ± 3.1
Cc1onc(O)c1CC(N)C(=O)O (racemic) | 8 ± 4.7 | -2.92 ± 2.8 | 0.658 ± 0.83 | -5.58 ± 0.9
NC1(c2ccccc2Cl)CCCCC1=O (stereo unspecified) [Norketamine hydrochloride] | -46.1 ± 62 | -0.431 ± 3.5 | -1.51 ± 1.3 | -8.94 ± 5.6
C[C@H](N)Cn1ccc2cc(F)c(Cl)cc21 [Ro 60-0175 fumarate] | -11 ± 6.5 | -13.9 ± 3.6 | -24.5 ± 27 | -36.9 ± 19
CN1C[C@H](C(=O)N[C@]2(C)O[C@@]3(O)[C@@H]4CCCN4C(=O)[C@H](Cc4ccccc4)N3C2=O)C[C@@H]2c3cccc4[nH]cc(c34)C[C@H]21 [Dihydroergotamine mesylate] | -13.3 ± 3.8 | -13.6 ± 3.7 | -3.18 ± 1 | -9.78 ± 6.2
C[N+](C)(C)CC#CCN1CCCC1=O [Oxotremorine M] | 0.819 ± 4.8 | -4.44 ± 0.29 | 5.02 ± 6.2 | -9.93 ± 6.1
CN[C@@H]1C[C@@H](c2ccc(Cl)c(Cl)c2)c2ccccc21 [Indatraline hydrochloride] | -191 ± 210 | -44.5 ± 11 | -45.2 ± 11 | -523 ± 300
CCC1(C2=NCCN2)Cc2ccccc2O1 (stereo unspecified) [Efaroxan hydrochloride] | -1.15 ± 3.8 | -2.8 ± 0.41 | 2.37 ± 1.3 | -5.48 ± 0.29
BrC1C(Br)C(Br)C(Br)C(Br)C1Br (stereo unspecified) [1,2,3,4,5,6-Hexabromocyclohexane] | -8.52 ± 4.4 | -3.58 ± 0.59 | 3.98 ± 2.9 | -10.5 ± 7.6
C=CCN1CC[C@]2(C)c3cc(O)ccc3C[C@H]1C2C (single isomer, unassigned; (+)) | -9.2 ± 6 | -3.33 ± 1.6 | -3.28 ± 0.066 | -18.9 ± 3.2
CC(CN)CC(=O)O (stereo unspecified) [3-Methyl-GABA] | 7.73 ± 12 | 1.52 ± 0.2 | 0.31 ± 1.3 | -5.19 ± 2
c1cc(Cc2cnc[nH]2)ccn1 [Immethridine dihydrobromide] | -5.48 ± 3.3 | -1.33 ± 0.15 | 4.27 ± 4.9 | -8.83 ± 6.9

Compound | robust z score of cell number (mIMCD3 [1]; siRNA: siRpgrip1l) | robust z score of cell number (mIMCD3 [1]; siRNA: siScr) | robust z score of cilia incidence (mIMCD3 [2]) | robust z score of cilia incidence (mIMCD3 [3])
CC[N+](CC)(CCCNC1=CC(=O)C(NCCC[N+](CC)(CC)Cc2ccccc2)=CC1=O)Cc1ccccc1 [Benzoquinonium dibromide] | -5.11 ± 8 | 6.03 ± 0.14 | 0.436 ± 0.93 | -10.6 ± 11
CC(C)[C@@]1(NC(=O)[C@@H]2C[C@@H]3c4cccc5[nH]cc(c45)C[C@H]3N(C)C2)O[C@@]2(O)[C@@H]3CCCN3C(=O)[C@H](Cc3ccccc3)N2C1=O [Dihydroergocristine mesylate] | -73.5 ± 61 | -38.6 ± 23 | -18.3 ± 4.3 | -37.6 ± 20
C[C@H](Cc1ccc(OCC(=O)O)cc1)NC[C@H](O)c1cccc(Cl)c1 | -3.02 ± 2.2 | -1.34 ± 0.21 | -4.49 ± 4.3 | -9.19 ± 1
C1CCc2nnnn2CC1 [Pentylenetetrazole] | -31.5 ± 33 | -20.1 ± 4.2 | -9.4 ± 4 | -19.2 ± 3.9
NP(N)(=O)NC(=O)c1ccc(F)cc1 [Flurofamide] | -3.63 ± 2.1 | -3.49 ± 7.2 | 2.67 ± 1.5 | -8.26 ± 3.9
CN1C2CCC1CC(OC(c1ccccc1)c1ccc(Cl)cc1)C2 (stereo unspecified) | -30.7 ± 0.43 | -29.6 ± 15 | -49.9 ± 7.6 | -27.2 ± 6.2
NCC(O)c1ccc(O)cc1 (stereo unspecified) [Octopamine hydrochloride] | 0.99 ± 5.2 | 1.6 ± 1.3 | -0.706 ± 1.1 | -10.5 ± 5.8
O[C@H]1[C@H](O)[C@@H](O)CN2CC[C@H](O)[C@H]12 [Castanospermine] | -0.607 ± 0.94 | 3.97 ± 3.5 | 5.66 ± 2.3 | -7.31 ± 4
S=C=Nc1cccc(C2(N3CCCCC3)CCCCC2)c1 [Metaphit] | -8.58 ± 10 | -12.3 ± 15 | -0.156 ± 0.44 | -7.79 ± 6.2
O=C1/C(=C/c2ccccc2)C[C@@]2(O)[C@H]3Cc4ccc(O)c5c4[C@@]2(CCN3CC2CC2)[C@H]1O5 [BNTX maleate] | -30.66 ± 0.27 | -29.6 ± 15 | -45.9 ± 8.3 | -27.5 ± 4.9
Cc1onc(O)c1CC(N)C(=O)O (racemic) [(RS)-AMPA hydrobromide] | -7.38 ± 4.4 | -1.87 ± 0.88 | 0.0329 ± 0.77 | -14.7 ± 2.9
Cc1ccc(C[N+](C)(C)C)o1 [5-Methylfurmethiodide] | 0.41 ± 4.8 | -2.5 ± 1.6 | 1.22 ± 0.3 | -12.4 ± 2.9
c1ccc2sc(C3(N4CCCCC4)CCCCC3)cc2c1 [BTCP maleate] | -8.96 ± 0.67 | -8.25 ± 4.2 | -16.5 ± 3.2 | -24.5 ± 1.9
O=Cc1cn(Cc2ccc(Cl)cc2)c2ccccc12 [Oncrasin 1] | -20.6 ± 23 | -4.92 ± 0.77 | -0.192 | -10.7 ± 8
CN1CCC(c2c[nH]c3ccc(O)cc23)CC1 | -21.9 ± 15 | -5.73 ± 2.4 | 0.561 ± 1.2 | -11.8 ± 4.1
CCCN(C/C=C/I)C1CCc2ccc(O)cc2C1 (stereo unspecified) [7-Hydroxy-PIPAT maleate] | -1.08 ± 3.7 | -0.143 ± 0.91 | 2.59 ± 1.3 | -7.56 ± 3.4
CCCN(CCC)C1CCc2cccc(O)c2C1 (stereo unspecified) [8-Hydroxy-DPAT hydrobromide] | -3.29 ± 2.3 | -1.81 ± 2.1 | 0.779 ± 2.1 | -10.9 ± 1.4
CN1CCc2cc3c(cc2C1C1OC(=O)c2c1ccc1c2OCO1)OCO3 (single isomer, unassigned; (+)) [(+)-Bicuculline] | -1.51 ± 3.5 | -3.83 ± 4.8 | 0.577 ± 0.35 | -9.65 ± 1.1
CCNC(=O)[C@H]1O[C@@H](n2cnc3c(N)ncnc32)[C@H](O)[C@@H]1O | -4.61 ± 6.3 | -6.41 ± 2.9 | -5.33 ± 2.5 | -13.2 ± 1.4

2 records picked at random from the list so far:
Compound | robust z score of cell number (mIMCD3 [1]; siRNA: siRpgrip1l) | robust z score of cell number (mIMCD3 [1]; siRNA: siScr) | robust z score of cilia incidence (mIMCD3 [2]) | robust z score of cilia incidence (mIMCD3 [3])
O[C@H]1[C@H](O)[C@@H](O)CN2CC[C@H](O)[C@H]12 [Castanospermine] | -0.607 ± 0.94 | 3.97 ± 3.5 | 5.66 ± 2.3 | -7.31 ± 4
CCCN(CCC)C1CCc2cccc(O)c2C1 (stereo unspecified) [8-Hydroxy-DPAT hydrobromide] | -3.29 ± 2.3 | -1.81 ± 2.1 | 0.779 ± 2.1 | -10.9 ± 1.4
